# Measurements: patent US20170072041A1 (OHIO STATE INNOVATION FOUNDATION, published 2017)
# No constants are given. Whether binding was seen depends on the method and setting. Some results given as binding are weak or reduced against the parent protein; the word gives no strength. Tags and fused reporters may be left off the sequences shown.
# B1: rEtpE-C (recombinant C-terminal region of EtpE/ECH1038, residues 1656-1963, C-terminal histidine-tagged fusion protein) (ligand)
# chain: ELLSLVGGHRNASSNNANNGRSLSQGIRYKITFKISFAQNYFPVDEIIKLQQDANNMEYGVHGVHRTDIIALWSYISYASSKSKWLFKRYQSFAGLLFEIGAWGKCTSAERVFFTSMNRYSEKLPLKVYNFIRKITTGDFARKFSGMQSLYTYKQRVYDYVMHCVLRGGLGGECSDMTLREISNELHKLKQEIYSNYDVFRDLGITNGQQEVLLLINVMMLNYAMSDLLVSTTQVNSMLADVRSSLSRTAHCLPYGTVSQLQRSVSHMKYGEYSNYRASVVALWACISCLASFNDDMEPLIKLMLEGD
# notes: Used renatured on membrane or Ni matrix, or coated on 0.5 um latex beads; also called rEtpE-C-coated beads; not shown: C-terminal histidine tag from pET33b(+)
# Key:
# [1] = target: canine DNase X on the cell surface (canine primary macrophages, DH82 cells) (canine); assay: immunofluorescence of canine primary macrophages and DH82 cells, 30 min, not permeabilised
# [2] = target: canine DNase X on the cell surface (canine primary macrophages, DH82 cells) (canine); assay: immunofluorescence, deconvolution microscopy, not permeabilised
binder,measurement,setting,value
B1,binding,[1],binds
same,binding,[2],binds
